Assay results reported in US5262519A (The Salk Institute for Biological Studies, priority 1991, dated 1993).
Some peptides are written in HELM: one residue between dots, names in brackets for other building blocks, links after the first $.

Experiment: Boc solid-phase peptide synthesis; MBHA resin; DCCI (HOBt for Asn/Gln)
Settings: whole synthesis, HPLC; confirmed by mass spectroscopy and capillary zone electrophoresis

## PEPTIDE1{Y.A.D.A.I.F.T.A.S.Y.R.K.V.L.G.Q.L.S.A.R.K.L.L.Q.D.I.[Nle].S.R.[am]}$$$$V2.0
  final purity (method not given): greater than about 95%
